Patent US7956088B2, “Synthetic lactone formulations and methods of use” (priority 2002, dated 2011)
Some of these results come from one statement about several compounds together. Some ranges recur; such a range may be that of the whole group of compounds.

tested on: PC-4, LnCaP, CaSKi and C-33 tumor cell lines; conditions: all cancer types
Method: Four tumor cell lines, including human prostate cancers PC-4 ([…]) and LnCaP ([…]) and human cervical cancers CaSKi (human papilloma virus-(HPV) Type-16 positive] and C-33 (HPV-negative), were cultured in RPMI-10% bovine serum, glutamine and antibiotics at 5% CO2 an 37 degrees Celsius.

Compound | Concentrations inhibiting proliferative activity [µM]
COc1cccc2c1C(=O)c1c(O)c3c(c(O)c1C2=O)C[C@@](O)(C(=O)CO)C[C@@H]3O[C@H]1C[C@H](N)[C@H](O)[C@H](C)O1 [doxorubicin] | 0.001 to 0.5
CN(Cc1cnc2nc(N)nc(N)c2n1)c1ccc(C(=O)N[C@@H](CCC(=O)O)C(=O)O)cc1 [methotrexate, reference compound] | 0.001 to 0.5
CC(=O)O[C@H]1C(=O)[C@@]2(C)[C@H]([C@H](OC(=O)c3ccccc3)[C@]3(O)C[C@H](OC(=O)[C@H](O)[C@@H](NC(=O)c4ccccc4)c4ccccc4)C(C)=C1C3(C)C)[C@]1(OC(C)=O)CO[C@@H]1C[C@@H]2O [paclitaxel] | 0.001 to 0.5
